# Measured values from PubChem BioAssay AID624297 (National Center for Advancing Translational Sciences (NCATS), 2012).
# Hit rate of the full screen: of about 340,000 compounds, about 6,200 (1.8%) were called active. The shares of active, inactive and inconclusive entries below differ from those in the screen. Calls follow the shape of the dose curve; as a rule, active = well fitted activation curve with a large enough effect; inconclusive = small, poorly fitted or top-dose-only effect; inactive = no such curve, though single readings can be large or run the other way. Potencies beside an inconclusive call are fits to weak or partial responses and may not hold up.
# Assay: A quantitative high throughput screen for small molecules that induce DNA re-replication in SW480 colon adenocarcinoma cells. Also: nearly all actives have a fitted effect of over 55% in size. As to re-replication activation: % of control where 0% means no effect.
# Conditions: Hoechst DNA content imaging, 48 h; re-replication activation: at 46.1 µM (top of the series) unless noted
# Procedure, shortened: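 Hoechst fluorescence of nuclei (405 nm excitation, 500-530 nm emission) measured by plate-scanning imager after 48 hr compound exposure at 37 C; re-replication scored as increased number of nuclei with elevated intensity.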
# Potency is read from the fitted curve at half-maximal effect.
Compound,re-replication activation,Potency
O=C(CN(C(=O)c1csnn1)c1ccccc1Cl)NC1CCCCC1,inactive: -6.2%,–
COCCCn1c(=O)c2ccccc2n(Cc2ccc(C)cc2)c1=O,inactive: -1.73%,–
CC(C)(C)C(=O)C(Cl)C(=O)Nc1ccccc1 (centres undefined),–,"inconclusive: 29.1 µM [activator, single point]"
CCc1ccc(/C=C2\SC(=S)N(CCC(=O)N3CCN(C)CC3)C2=O)cc1,–,"inconclusive: 25.9 µM [activator, single point]"
CC(C)(C)c1ccc(NC(=O)C2CCCN(c3cnccn3)C2)cc1 (centres undefined),–,"inconclusive: 29.1 µM [activator, single point]"
O=C(NN1CCOCC1)NC12CC3CC(CC(C3)C1)C2,inactive: -5.75%,–
CCN(CC)C(=O)CSc1nnc(COc2ccccc2)n1N,inactive: 18.6%,–
N#Cc1c(-c2ccc(Cl)cc2)c(-c2ccc(Cl)cc2)nn(CCO)c1=O,–,"inconclusive: 11.6 µM [activator, partial curve]"
O=C(Nc1cccc(F)c1)C1CCCN(S(=O)(=O)c2cnc[nH]2)C1 (centres undefined),–,"inconclusive: 23.1 µM [activator, single point]"
Oc1c(CN2CCCCC2)cc(Br)c2cccnc12,–,"inconclusive: 18.4 µM [activator, single point]"
Nc1n[nH]c(N)c1N=Nc1ccc(F)cc1,–,"inconclusive: 29.1 µM [activator, single point]"
CC1CCCN(CCCNC(=O)c2ccc3c(c2)N(Cc2ccccc2F)C(=O)c2ccccc2S3(=O)=O)C1 (centres undefined),–,"inconclusive: 29.1 µM [activator, single point]"
O=C(/C=C/c1ccccc1)c1ccc2c(c1)OCO2,–,"inconclusive: 29.1 µM [activator, single point]"
Cc1ccc(OCCC(=O)Nc2ccc(F)c(F)c2)cc1,inactive: 2.35%,–
CCCNC(=O)c1c(N)n(-c2ccc3c(c2)OCO3)c2nc3ccccc3nc12,–,"inconclusive: 2.91 µM [activator, full curve]"
CC(Sc1nc2ccccc2c(=O)n1C)C(=O)Nc1ccc2c(c1)OCCO2 (centres undefined),–,"inconclusive: 0.517 µM [activator, partial curve, poor fit]"
CCS(=O)(=O)c1nnnn1-c1ccccc1S(C)(=O)=O,–,"inconclusive: 29.1 µM [activator, single point]"
Cc1ccc(-c2nn3nnnc3c3ccccc23)cc1C,–,"inconclusive: 20.6 µM [activator, single point]"
CCSC1=NC2(CCCCC2)Nc2sc3c(c21)CCCC3,–,"inconclusive: 32.6 µM [activator, partial curve, poor fit]"
CC1CN(C(=O)CCc2ccccc2)C(C)CN1C(=O)CCc1ccccc1 (centres undefined),inactive: -4.15%,–
Cc1ccc2[nH]c3c(c2c1)CN(C(=O)CN1CCN(Cc2ccc4c(c2)OCO4)CC1)CC3,inactive: 8.87%,–
O=C(O)C(Cc1cn[nH]n1)=NO,inactive: -20.5%,–
CC(=O)N1CCc2c(sc(NC(=O)CS(=O)(=O)c3ccc(F)cc3)c2C#N)C1,–,"inconclusive: 29.1 µM [activator, single point]"

Compound,re-replication activation,Potency
O=c1[nH]c2c(c3c1CCCC3)CCCC2,–,"inconclusive: 32.6 µM [activator, partial curve, poor fit]"
CC1(C)Cc2c(c(N3CCCC3)nc3sc(C(=O)Nc4ccccc4)c(N)c23)CO1,–,"inconclusive: 18.4 µM [activator, single point]"
O=C(CC(Sc1ccccc1)c1cccs1)c1ccco1 (centres undefined),inactive: -0.327%,–
COc1ccc(C=O)cc1COc1ccc(C)cc1[N+](=O)[O-],–,"inconclusive: 29.1 µM [activator, single point]"
COc1ccccc1NC(=O)c1cnc(SCC(=O)NCC2CCCO2)n(C)c1=O (centres undefined),–,"inconclusive: 11.2 µM [activator, partial curve, poor fit]"
CC1CC(C)CN(S(=O)(=O)c2ccc(NN)nc2)C1 (centres undefined),–,"inconclusive: 18.4 µM [activator, single point]"
Cc1cc(C(=O)NCc2ccc(F)cc2)n(-c2ccccc2)n1,inactive: -1.45%,–
O=C(Nc1cccnc1)c1ccc(-c2ccccc2)cc1,–,"inconclusive: 29.1 µM [activator, single point]"
CCNc1nc(NC#N)nc(SCC(=O)OCC)n1,inactive: -3.14%,–
CC(C)N1CCN(c2ccc(OC[C@H]3CO[C@](Cn4cncn4)(c4ccc(Cl)cc4Cl)O3)cc2)CC1,–,"inconclusive: 29.1 µM [activator, single point]"
O=C(O)C(Cc1cc(Cl)ccc1Cl)Sc1nc2ccccc2[nH]1 (centres undefined),–,"inconclusive: 0.58 µM [activator, full curve, poor fit]"
Fc1ccc(N2CCN(C3CCC(c4ccccc4)CC3)CC2)cc1 (centres undefined),–,"inconclusive: 23.1 µM [activator, single point]"
Cc1cc(NC(=O)CSc2nccn2-c2cccc(C)c2C)no1,–,"inconclusive: 18.4 µM [activator, single point]"
COc1ccc(-c2oc(=O)c3cc(OC)c(OC)cc3c2/C=C/c2ccc(OC(C)=O)cc2)cc1,–,"inconclusive: 5.17 µM [activator, partial curve]"
Cc1ccccc1N1CCN(C(=O)NCc2cccc(Cl)c2)CC1,inactive: 8.74%,–
O=C(CCl)N1c2ccccc2OCC1c1ccccc1 (centres undefined),–,"inconclusive: 20.6 µM [activator, single point]"
FC(F)(F)c1cccc(Nc2cc(-c3ccccc3)nc3ncnn23)c1,inactive: -2.26%,–
Sc1oc(-c2ccccc2)cc1C=Nc1ccccc1,–,active: 13 µM
COc1ccc(NC(=O)NNC(=O)c2cc3ccccc3cc2O)cc1,–,"inconclusive: 29.1 µM [activator, single point]"
O=C(NCc1ccco1)c1ccc2c(c1)C(=O)c1ccccc1-2,–,"inconclusive: 29.1 µM [activator, single point]"
Cc1cc(C)c(C)c(S(=O)(=O)Nc2cccc(S(=O)(=O)Nc3ccccc3C(=O)O)c2)c1C,–,"inconclusive: 23.1 µM [activator, single point]"
CCOc1ccccc1NC(=O)COC(=O)c1nc2nccc(C)n2n1,–,"inconclusive: 23.1 µM [activator, partial curve, poor fit]"
COc1ccc(Nc2oc(-c3ccc(Cl)cc3)nc2C#N)cc1,–,"inconclusive: 23.1 µM [activator, single point]"

# Record cards, from the list above:
# `CC1CC(C)CN(S(=O)(=O)c2ccc(NN)nc2)C1` (centres undefined) as listed: Potency: inconclusive: 18.4 µM [activator, single point]
# `CC(C)N1CCN(c2ccc(OC[C@H]3CO[C@](Cn4cncn4)(c4ccc(Cl)cc4Cl)O3)cc2)CC1` as listed: Potency: inconclusive: 29.1 µM [activator, single point]
# `COc1ccc(C=O)cc1COc1ccc(C)cc1[N+](=O)[O-]` as listed: Potency: inconclusive: 29.1 µM [activator, single point]

# Further entries follow:

Compound,re-replication activation,Potency
S=C(NNc1cccc(Cl)c1)NC1CCCCC1,–,"inconclusive: 20.6 µM [activator, single point]"
CCN(CC(=O)NCc1ccc(Cl)cc1)C(=O)CN1C(=O)NC(CC)(c2ccccc2)C1=O (centres undefined),inactive: -2.21%,–
COc1ccc(S(=O)(=O)NCc2ccccn2)cc1NC(=O)c1ccc(Cl)cc1,–,"inconclusive: 18.4 µM [activator, single point]"
COc1ccc(NC(=O)c2nc3ccccc3s2)cc1,inactive: -691%,–
CC(C)c1cc(NCC2CCCO2)n2c(nc3ccccc32)c1C#N (centres undefined),–,"inconclusive: 18.4 µM [activator, single point]"
COc1ccc(CN=C2NC(=O)CC(C(=O)Nc3ccccc3C)S2)cc1 (centres undefined),–,"inconclusive: 5.8 µM [activator, partial curve, poor fit]"
CCN(CC)C(=O)n1c(Cc2ccccc2)nc2ccccc21,–,"inconclusive: 29.1 µM [activator, single point]"
CCOC(=O)C(NC(=O)CCl)(Nc1sc(C)c(CC)c1C#N)C(F)(F)F (centres undefined),–,active: 16.4 µM
CNC(=O)c1c(NC(=O)c2cccc(N3C(=O)CCC3=O)c2)sc2c1CCC2,–,"inconclusive: 0.411 µM [activator, full curve, poor fit]"
CCOc1cccc2sc(N(CCN(C)C)C(=O)/C=C/c3cccs3)nc12,–,"inconclusive: 25.9 µM [activator, single point]"
CN(CC(=O)Nc1ccccc1Br)C(=O)c1ccccc1OCc1ccc(F)cc1,inactive: -26.3%,–
CN(C(=O)COC(=O)/C=C/c1ccc(S(=O)(=O)N2CCc3ccccc32)cc1)C1CCS(=O)(=O)C1 (centres undefined),–,"inconclusive: 29.1 µM [activator, single point]"
CC1CCN(S(=O)(=O)c2ccc(NC(=O)CCNC(=O)c3ccc(Cl)cc3)cc2)CC1,–,"inconclusive: 23.1 µM [activator, partial curve, poor fit]"
COc1cc(C2C(C#N)=C(N)N(c3cccnc3)C3=C2C(=O)CCC3)ccc1O (centres undefined),inactive: -5.4%,–
COc1ccc(C(=O)N2CCN(C(=O)C3CCCO3)CC2)cc1[N+](=O)[O-] (centres undefined),–,"inconclusive: 29.1 µM [activator, single point]"
Cc1ccc2c(c1)cc(CN(Cc1ccco1)C(=O)COc1ccccc1)c1nnnn12,inactive: 8.41%,–
Cc1cccc(C)c1NS(=O)(=O)c1ccc(NC(=O)c2ccc(Cl)c([N+](=O)[O-])c2)cc1,–,"inconclusive: 20.6 µM [activator, single point]"
CCN(CCNC(=O)C1CCN(S(=O)(=O)c2cccc3cccnc23)CC1)c1ccccc1,–,"inconclusive: 32.6 µM [activator, partial curve, poor fit]"
CCN1CCN(c2cc(N3CCc4ccccc4C3)c(F)cc2[N+](=O)[O-])CC1,–,"inconclusive: 29.1 µM [activator, single point]"
CCN(CC(=O)Nc1ccc(NC(C)=O)cc1)C(=O)c1ccc(N(C)S(=O)(=O)c2ccc(C)cc2)cc1,inactive: -9.26%,–
CC(C)COc1ccc(CNC(=S)NCc2ccccc2)cc1,–,"inconclusive: 29.1 µM [activator, single point]"
O=C(NCCCn1cccn1)C1CCC(=O)N(Cc2ccccc2F)C1 (centres undefined),–,"inconclusive: 1.46 µM [activator, full curve, poor fit]"
CCn1c(COc2cccc(C)c2)nnc1SCC(=O)CC(=O)Nc1ccccc1OC,inactive: 9.55%,–

# Reformatted: two of the compounds above.
Compound	re-replication activation	Potency
CCN(CC(=O)Nc1ccc(NC(C)=O)cc1)C(=O)c1ccc(N(C)S(=O)(=O)c2ccc(C)cc2)cc1	inactive: -9.26%	–
CC(C)COc1ccc(CNC(=S)NCc2ccccc2)cc1	–	inconclusive: 29.1 µM [activator, single point]
